The text below walks through data of article PMC5421940.

These are yes or no findings as the source states them, for the method shown. In cells and extracts the contact can be indirect. Binding can be weak; no strength is given. Tags and fused reporters may be left off the sequences shown.

The test concerns the target GFP-MCPyV tAg A101R (Merkel cell polyomavirus). The experiment in a line: co-IP.

B1: FLAG-PP4c (expressed in cells) (enzyme, UniProt P60510 1-307)
chain: MAEISDLDRQIEQLRRCELIKESEVKALCAKAREILVEESNVQRVDSPVTVCGDIHGQFYDLKELFRVGGDVPETNYLFMGDFVDRGFYSVETFLLLLALKVRYPDRITLIRGNHESRQITQVYGFYDECLRKYGSVTVWRYCTEIFDYLSLSAIIDGKIFCVHGGLSPSIQTLDQIRTIDRKQEVPHDGPMCDLLWSDPEDTTGWGVSPRGAGYLFGSDVVAQFNAANDIDMICRAHQLVMEGYKWHFNETVLTVWSAPNYCYRCGNVAAILELDEHLQKDFIIFEAAPQETRGIPSKKPVADYFL
B1: the binding entry is reported as “binds”.
